In article PMC8476571:
These are yes or no findings as the source states them, for the method shown. Binding seen in cells or lysates may run through a third protein. A result given as binding can be weak or reduced; the word gives no strength. Tags and fused reporters may be left off the sequences shown.

Target: T1, Lactococcus lactis Csm2 (LlCsm2) with N-terminal His6-tag (Lactococcus lactis) (UniProt L0CFW2)
T1 sequence: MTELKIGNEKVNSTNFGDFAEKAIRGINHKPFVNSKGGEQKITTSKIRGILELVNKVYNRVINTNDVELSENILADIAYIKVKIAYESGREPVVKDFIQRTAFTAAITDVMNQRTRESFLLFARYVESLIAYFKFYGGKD
Assay: co-purification (Ni-NTA affinity, then size exclusion); all Csm subunits and the crRNA co-expressed in E. coli from one plasmid; complex isolated by the N-terminal His6-tag on LlCsm2; size-exclusion column in 20 mM HEPES pH 7.5, 200 mM NaCl, 5 mM MgCl2, 14 mM 2-mercaptoethanol; the complex is a ribonucleoprotein with crRNA

| Substance | binding |
| --- | --- |
| Lactococcus lactis Csm1 (LlCsm1) (enzyme) | binds |
| Lactococcus lactis Csm1 H13A (enzyme) | binds |
